The values below come from patent US7741283B2, “Compositions and methods for inhibiting cell proliferation” (St. Louis University, priority 2003, dated 2010).

By UniProt entry, the sequences of proteins in these tests, tags left out. Residues count along the entry.
UniProt Q91ZX7, 20-4545: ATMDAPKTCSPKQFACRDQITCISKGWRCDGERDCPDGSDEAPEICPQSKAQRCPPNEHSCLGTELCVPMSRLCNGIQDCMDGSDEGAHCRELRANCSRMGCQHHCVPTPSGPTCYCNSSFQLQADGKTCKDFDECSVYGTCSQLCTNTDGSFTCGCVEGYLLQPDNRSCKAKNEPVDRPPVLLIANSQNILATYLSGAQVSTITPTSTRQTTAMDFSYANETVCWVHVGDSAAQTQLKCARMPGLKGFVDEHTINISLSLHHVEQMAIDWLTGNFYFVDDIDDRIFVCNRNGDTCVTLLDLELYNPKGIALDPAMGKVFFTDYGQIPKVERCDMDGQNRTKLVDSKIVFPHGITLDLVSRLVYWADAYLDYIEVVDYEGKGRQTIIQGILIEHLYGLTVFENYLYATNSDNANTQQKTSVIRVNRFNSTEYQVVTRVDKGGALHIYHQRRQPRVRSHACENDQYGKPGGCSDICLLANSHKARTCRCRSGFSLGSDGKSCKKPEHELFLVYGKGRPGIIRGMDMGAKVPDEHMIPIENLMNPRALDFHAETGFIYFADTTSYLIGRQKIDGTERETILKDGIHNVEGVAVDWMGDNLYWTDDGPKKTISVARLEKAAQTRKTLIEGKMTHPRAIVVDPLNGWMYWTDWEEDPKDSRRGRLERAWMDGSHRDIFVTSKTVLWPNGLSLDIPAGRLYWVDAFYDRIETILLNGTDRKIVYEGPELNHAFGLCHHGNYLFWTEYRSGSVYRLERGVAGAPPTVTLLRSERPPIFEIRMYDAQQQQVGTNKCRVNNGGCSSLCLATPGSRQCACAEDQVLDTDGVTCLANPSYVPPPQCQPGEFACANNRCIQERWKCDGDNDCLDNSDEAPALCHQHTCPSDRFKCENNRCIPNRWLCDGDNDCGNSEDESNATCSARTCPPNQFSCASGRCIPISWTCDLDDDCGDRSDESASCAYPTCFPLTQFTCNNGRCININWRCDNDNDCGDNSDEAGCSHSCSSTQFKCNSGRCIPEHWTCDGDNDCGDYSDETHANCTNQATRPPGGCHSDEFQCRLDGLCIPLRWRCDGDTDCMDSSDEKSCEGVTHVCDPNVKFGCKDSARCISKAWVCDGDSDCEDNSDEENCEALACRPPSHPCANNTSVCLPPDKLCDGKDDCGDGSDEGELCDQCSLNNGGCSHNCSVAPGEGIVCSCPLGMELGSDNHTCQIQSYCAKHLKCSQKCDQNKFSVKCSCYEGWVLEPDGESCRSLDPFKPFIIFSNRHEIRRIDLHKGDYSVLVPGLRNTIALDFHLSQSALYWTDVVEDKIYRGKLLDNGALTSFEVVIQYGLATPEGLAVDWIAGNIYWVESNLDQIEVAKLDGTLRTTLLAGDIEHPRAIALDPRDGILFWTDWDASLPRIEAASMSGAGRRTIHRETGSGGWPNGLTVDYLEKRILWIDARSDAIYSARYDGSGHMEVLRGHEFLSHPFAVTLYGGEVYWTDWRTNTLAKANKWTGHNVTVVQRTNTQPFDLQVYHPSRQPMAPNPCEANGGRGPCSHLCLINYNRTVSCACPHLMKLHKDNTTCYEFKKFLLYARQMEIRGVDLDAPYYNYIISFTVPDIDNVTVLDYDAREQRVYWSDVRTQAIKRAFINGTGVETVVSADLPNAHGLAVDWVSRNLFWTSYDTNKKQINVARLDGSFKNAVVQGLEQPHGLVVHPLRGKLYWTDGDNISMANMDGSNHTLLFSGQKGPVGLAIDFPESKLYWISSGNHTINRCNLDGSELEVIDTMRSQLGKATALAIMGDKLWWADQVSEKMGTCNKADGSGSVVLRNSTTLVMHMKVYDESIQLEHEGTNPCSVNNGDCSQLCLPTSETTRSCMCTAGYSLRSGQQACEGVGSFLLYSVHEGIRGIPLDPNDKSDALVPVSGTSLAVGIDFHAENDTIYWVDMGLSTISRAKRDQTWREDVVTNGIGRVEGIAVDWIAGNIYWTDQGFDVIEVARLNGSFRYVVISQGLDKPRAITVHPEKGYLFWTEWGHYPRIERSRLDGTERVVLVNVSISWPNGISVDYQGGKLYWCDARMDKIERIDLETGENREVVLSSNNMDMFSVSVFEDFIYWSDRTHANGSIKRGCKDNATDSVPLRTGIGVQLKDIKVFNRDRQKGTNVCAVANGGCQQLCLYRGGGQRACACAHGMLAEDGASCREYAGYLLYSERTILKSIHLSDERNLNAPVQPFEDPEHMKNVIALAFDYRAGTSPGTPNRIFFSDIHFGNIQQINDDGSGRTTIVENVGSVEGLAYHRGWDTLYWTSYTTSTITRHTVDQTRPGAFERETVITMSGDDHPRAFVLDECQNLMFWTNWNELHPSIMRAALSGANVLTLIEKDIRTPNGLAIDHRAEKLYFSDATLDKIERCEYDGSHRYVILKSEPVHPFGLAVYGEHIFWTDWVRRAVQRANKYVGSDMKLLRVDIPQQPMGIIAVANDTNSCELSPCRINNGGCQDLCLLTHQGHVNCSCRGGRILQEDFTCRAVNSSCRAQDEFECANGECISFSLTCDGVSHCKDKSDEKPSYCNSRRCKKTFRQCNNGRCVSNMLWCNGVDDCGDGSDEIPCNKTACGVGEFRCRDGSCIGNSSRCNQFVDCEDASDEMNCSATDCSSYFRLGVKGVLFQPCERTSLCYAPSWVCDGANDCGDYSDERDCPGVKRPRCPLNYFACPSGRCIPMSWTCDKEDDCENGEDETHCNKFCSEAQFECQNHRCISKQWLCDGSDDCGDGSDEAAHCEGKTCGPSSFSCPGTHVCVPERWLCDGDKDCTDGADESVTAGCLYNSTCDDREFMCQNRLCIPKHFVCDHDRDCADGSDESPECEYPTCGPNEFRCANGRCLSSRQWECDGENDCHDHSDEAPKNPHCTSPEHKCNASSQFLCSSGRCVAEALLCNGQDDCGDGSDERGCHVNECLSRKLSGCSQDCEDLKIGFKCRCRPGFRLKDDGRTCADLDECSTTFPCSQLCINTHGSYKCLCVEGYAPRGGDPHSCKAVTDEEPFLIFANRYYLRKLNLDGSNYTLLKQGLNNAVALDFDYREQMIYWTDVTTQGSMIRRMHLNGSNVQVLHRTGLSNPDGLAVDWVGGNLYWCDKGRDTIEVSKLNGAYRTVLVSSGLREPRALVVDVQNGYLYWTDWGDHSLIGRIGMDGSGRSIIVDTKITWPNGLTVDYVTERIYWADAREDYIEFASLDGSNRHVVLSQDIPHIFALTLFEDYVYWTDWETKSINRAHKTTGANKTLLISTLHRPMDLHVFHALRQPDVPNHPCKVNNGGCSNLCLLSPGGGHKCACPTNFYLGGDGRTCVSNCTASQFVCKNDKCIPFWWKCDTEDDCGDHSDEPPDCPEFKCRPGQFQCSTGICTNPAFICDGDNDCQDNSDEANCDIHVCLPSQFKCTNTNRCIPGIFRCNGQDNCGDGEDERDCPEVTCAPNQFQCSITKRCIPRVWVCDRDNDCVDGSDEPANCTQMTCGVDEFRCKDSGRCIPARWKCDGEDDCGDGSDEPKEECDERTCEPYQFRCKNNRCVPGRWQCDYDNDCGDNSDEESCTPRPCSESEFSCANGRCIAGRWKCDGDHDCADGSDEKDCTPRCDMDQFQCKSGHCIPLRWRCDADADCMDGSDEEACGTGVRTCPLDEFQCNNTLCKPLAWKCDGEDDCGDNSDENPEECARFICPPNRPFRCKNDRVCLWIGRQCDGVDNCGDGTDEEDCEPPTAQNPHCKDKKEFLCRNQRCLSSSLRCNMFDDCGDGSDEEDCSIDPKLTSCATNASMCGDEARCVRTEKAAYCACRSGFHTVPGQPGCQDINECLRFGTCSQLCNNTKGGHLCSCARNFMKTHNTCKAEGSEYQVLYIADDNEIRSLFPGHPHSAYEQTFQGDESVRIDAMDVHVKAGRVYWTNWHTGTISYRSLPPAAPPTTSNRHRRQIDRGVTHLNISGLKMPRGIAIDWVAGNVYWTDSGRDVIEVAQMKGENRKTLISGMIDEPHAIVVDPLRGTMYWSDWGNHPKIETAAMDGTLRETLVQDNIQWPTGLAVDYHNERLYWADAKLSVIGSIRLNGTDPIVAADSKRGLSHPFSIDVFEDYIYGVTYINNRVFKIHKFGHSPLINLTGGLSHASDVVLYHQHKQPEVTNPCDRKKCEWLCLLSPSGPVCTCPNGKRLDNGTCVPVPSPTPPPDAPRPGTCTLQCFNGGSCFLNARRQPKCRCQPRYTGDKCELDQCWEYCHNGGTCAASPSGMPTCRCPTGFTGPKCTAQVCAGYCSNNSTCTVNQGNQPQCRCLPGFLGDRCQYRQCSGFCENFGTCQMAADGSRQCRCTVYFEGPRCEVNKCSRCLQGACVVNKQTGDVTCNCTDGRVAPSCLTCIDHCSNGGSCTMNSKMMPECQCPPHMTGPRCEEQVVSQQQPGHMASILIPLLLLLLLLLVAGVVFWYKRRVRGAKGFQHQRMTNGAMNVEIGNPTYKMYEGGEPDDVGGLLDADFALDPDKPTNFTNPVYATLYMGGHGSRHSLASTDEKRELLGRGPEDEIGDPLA

A word on the IC50: it is the concentration at which inhibition is half-maximal.

This experiment addresses T1, LRP-1 (Mus musculus, UniProt Q91ZX7).
T1 construct: endogenous in cells; host or cells: MEF (mouse embryonic fibroblasts)
Nature of the experiment: 125I-α2M* binding to MEF cells at pH 7.4. Particulars: read-out: IC50, inhibition of ^125I-α2M* binding to LRP-1.

Consider `OCCN1CCN(CCCN2c3ccccc3Sc3ccc(C(F)(F)F)cc32)CC1` [fluphenazine], for which the IC50 lay within 25 to 30 µM.
